The data set relates to PpHY5 (Pinus pinaster). The data set can be described thus: EMSA. The conditions noted are these: EMSA buffer; recombinant protein; label: 5'-biotin; letters put together from the description.

The exact form of at least one protein or probe is not confirmed. At least one verdict was read from the data and is not stated in words by the source.

With “ACAACAGACTGGTAAGGCACACGTGCTTCCACGAGATCCACTAACTTGCGCGGGTGTTTACACACCTAACCACTCCGGAGCTTCCATGCT (double strand) [probe A2 (PADT-A 281-370)]”, the binding result was “binds”.

(Values after paper PMC7260716, “Transcriptional analysis of arogenate dehydratase genes identifies a link between phenylalanine biosynthesis and lignin biosynthesis”.)
